In the supplement of paper PMC6078165:

System: BT20
Experiment: relative JC-1 red fluorescence (viability) vs pre-drug, coculture with fibroblast (fraction); higher = more viable cancer cells
Experimental: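 JC-1 labelled TNBC cells cocultured 1:1 (1,500 cells each) with CellTrace Violet stained primary or stromal fibroblasts in 384-well plates in FluoroBrite medium, treated with one of 42 anticancer drugs at 0.1, 1, 10 or 100 uM. JC-1 red fluorescence (mitochondrial integrity in cancer cells only) was read by plate reader every 8 h for 72 h. Values are normalised to each well's pre-drug value. The stock of one drug was tenfold lower, so its dose labels may be too high.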

COc1cc([C@@H]2c3cc4c(cc3[C@@H](O[C@@H]3O[C@@H]5CO[C@@H](C)O[C@H]5[C@H](O)[C@H]3O)[C@H]3COC(=O)[C@H]23)OCO4)cc(OC)c1O [Etoposide]
relative JC-1 red fluorescence
Details | 8 h | 16 h | 24 h | 32 h | 40 h | 48 h | 56 h | 64 h | 72 h
10 µM, coculture fibroblast: C12385 | 0.8762 | 0.8097 | 0.7768 | 0.692 | 0.635 | 0.612 | 0.592 | 0.57 | 0.556
10 µM, coculture fibroblast: H6013 | 0.917 | 0.908 | 0.933 | 0.88 | 0.84 | 0.828 | 0.852 | 0.853 | 0.852
10 µM, coculture fibroblast: H6019 | 0.857 | 0.775 | 0.735 | 0.638 | 0.561 | 0.518 | 0.466 | 0.441 | 0.426
10 µM, coculture fibroblast: H6076 | 0.852 | 0.89 | 0.791 | 0.741 | 0.691 | 0.658 | 0.645 | 0.642 | 0.626
10 µM, coculture fibroblast: H6231 | 0.819 | 0.903 | 0.7874 | 0.707 | 0.641 | 0.589 | 0.557 | 0.533 | 0.514
10 µM, coculture fibroblast: HADF | 0.926 | 0.9 | 0.827 | 0.754 | 0.691 | 0.638 | 0.619 | 0.607 | 0.586
10 µM, coculture fibroblast: HCFa | 0.918 | 0.8692 | 0.849 | 0.754 | 0.697 | 0.656 | 0.638 | 0.6194 | 0.59
10 µM, coculture fibroblast: HCPF | 0.929 | 0.9003 | 0.828 | 0.774 | 0.741 | 0.696 | 0.66 | 0.654 | 0.62
10 µM, coculture fibroblast: HHSteC | 0.927 | 0.893 | 0.887 | 0.813 | 0.736 | 0.702 | 0.683 | 0.655 | 0.635
10 µM, coculture fibroblast: HMF | 0.851 | 0.898 | 0.781 | 0.685 | 0.638 | 0.579 | 0.56 | 0.545 | 0.517
10 µM, coculture fibroblast: HPFa | 0.9147 | 0.875 | 0.8768 | 0.789 | 0.755 | 0.72 | 0.719 | 0.695 | 0.654
10 µM, coculture fibroblast: HUF | 0.882 | 0.783 | 0.739 | 0.642 | 0.584 | 0.542 | 0.521 | 0.5 | 0.484
10 µM, coculture fibroblast: Hs5 | 0.938 | 0.91 | 0.829 | 0.773 | 0.724 | 0.679 | 0.666 | 0.656 | 0.658
10 µM, coculture fibroblast: Hs27A | 0.845 | 0.886 | 0.917 | 0.854 | 0.84815 | 0.877 | 0.861 | 0.857 | 0.836
10 µM, coculture fibroblast: Hs343T | 0.972 | 0.875 | 0.763 | 0.681 | 0.626 | 0.587 | 0.569 | 0.554 | 0.535
10 µM, coculture fibroblast: WS1 | 0.852 | 0.78165 | 0.7445 | 0.658 | 0.58808 | 0.5576 | 0.52 | 0.495 | 0.4811
100 µM, coculture fibroblast: C12385 | 0.896 | 0.8653 | 0.8238 | 0.7125 | 0.629 | 0.6042 | 0.5798 | 0.56 | 0.56
100 µM, coculture fibroblast: H6013 | 0.838 | 0.9495 | 0.93 | 0.852 | 0.8104 | 0.8087 | 0.82991 | 0.8215 | 0.803
100 µM, coculture fibroblast: H6019 | 0.8408 | 0.784 | 0.741 | 0.621 | 0.556 | 0.549 | 0.539 | 0.541 | 0.546
100 µM, coculture fibroblast: H6076 | 0.865 | 0.949 | 0.788 | 0.696 | 0.641 | 0.595 | 0.596 | 0.59 | 0.574
100 µM, coculture fibroblast: H6231 | 0.837 | 0.907 | 0.746 | 0.638 | 0.589 | 0.54 | 0.496 | 0.489 | 0.478
100 µM, coculture fibroblast: HADF | 0.977 | 0.8934 | 0.818 | 0.732 | 0.697 | 0.651 | 0.653 | 0.646 | 0.622
100 µM, coculture fibroblast: HCFa | 0.9462 | 0.878 | 0.811 | 0.721 | 0.669 | 0.664 | 0.669 | 0.667 | 0.652
100 µM, coculture fibroblast: HCPF | 0.8182 | 0.9319 | 0.847 | 0.785 | 0.741 | 0.703 | 0.687 | 0.688 | 0.649
100 µM, coculture fibroblast: HHSteC | 0.94 | 0.914 | 0.867 | 0.76 | 0.716 | 0.684 | 0.69 | 0.687 | 0.684
100 µM, coculture fibroblast: HMF | 0.927 | 0.9143 | 0.7722 | 0.659 | 0.606 | 0.557 | 0.528 | 0.513 | 0.5
100 µM, coculture fibroblast: HPFa | 0.941 | 0.9049 | 0.848 | 0.735 | 0.708 | 0.685 | 0.681 | 0.671 | 0.639
100 µM, coculture fibroblast: HUF | 0.896 | 0.837 | 0.8 | 0.692 | 0.63 | 0.596 | 0.594 | 0.5844 | 0.5877
100 µM, coculture fibroblast: Hs5 | 0.891 | 0.927 | 0.8112 | 0.735 | 0.6778 | 0.634 | 0.608 | 0.58 | 0.561
100 µM, coculture fibroblast: Hs27A | 0.764 | 0.883 | 0.9505 | 0.8594 | 0.819 | 0.816 | 0.813 | 0.8 | 0.7612
100 µM, coculture fibroblast: Hs343T | 0.9868 | 0.893 | 0.723 | 0.62 | 0.569 | 0.519 | 0.494 | 0.48 | 0.475
100 µM, coculture fibroblast: WS1 | 0.864 | 0.8 | 0.739 | 0.631 | 0.557 | 0.531 | 0.507 | 0.491 | 0.487

Values are relative to the signal before dosing, not to a vehicle control; the signal also falls without drug.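 Fibroblast labels denote human fibroblasts, mainly primary ones from uterus (C12385, HUF), lung (H6013), bone (Hs27A), adrenal (HADF) and skin (WS1), plus mammary HMF and breast cancer-associated Hs343T. Cancer cells are basal-like or mesenchymal-like triple-negative breast cancer lines. A hit is a response shift exceeding 3x replicate standard deviation. The tissue of the other fibroblasts is not given here.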
